Literature values, collected in patent US4168274A, “Production of a peracid and an oxirane” (priority 1975, dated 1979).
At least one read-out could not be matched to a standard name with certainty.

Details: Table I, carboxylic acids

SMILES	pK × 10^5
CCCCCC(=O)O [caproic]	1.4
CC(Cl)C(=O)O (stereo not drawn) [α-chlorpropionic]	147
